Percent effect of library compounds

The values are deposited in ChEMBL (CHEMBL3988442, “University of Dundee, Small-Polar-MMV Screening Library” (2021)).

Values are the deposited “Percent Effect”, in %. How 0% and 100% were set is not recorded. Most values in the screen are low, and negative values occur. The compounds are a random part of those screened. Two or more numbers in one place are separate tests of the same structure; such repeats can differ widely.

Mtb cholesterol medium: 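Growth of Mycobacterium tuberculosis over 4 days (cholesterol / DPPC medium with tyloxapol); the read-out is not stated. Compounds at 50 µM. The record gives no direction; compounds that gave an IC50 in retests scored well above the rest, so higher reads as more growth inhibition. Of about 69,000 compounds tested this way, about 370 (0.54%) reached 50% or more in at least one test.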
Mtb glucose medium: 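Phenotypic screen: M. tuberculosis growth, glucose 7H9 medium, 3 days; the read-out is not stated. Concentration: 50 µM. Direction is inferred from retests: higher values go with more growth inhibition. Of about 69,000 compounds tested this way, about 760 (1.1%) reached 50% or more in at least one test.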

SMILES,Mtb cholesterol medium,Mtb glucose medium
O=C(O)C(F)(F)F.O=C(O)C(F)(F)F.[H][C@@]12OCCN(Cc3csc(C)n3)[C@@]1([H])CC[C@@H]2OCc1cccnc1,1.828,0.4944
Cc1cnc(CN2CCCC2c2cnn(C)c2)cn1 (centres unmarked),-21.41,-23.63
CCN1C(=O)C(C)(C)c2cc(NC(=O)c3ccn(CC)n3)ccc21,-7.164,-7.314
COC(=O)[C@@H]1Cc2[nH]cnc2CN1Cc1cc2ccccc2o1,-10.3,-8.06 & -24.65
Cc1csc(CCNC(=O)C2CCCN(C3CCOCC3)C2)n1 (centres unmarked),-2.491,9.22
O=C(O)C(F)(F)F.O=C(O)C(F)(F)F.[H][C@]12C[C@@H](C(=O)Nc3cccnc3)CO[C@@]1([H])CCN(CCC)C2,-1.322,-4.268
CSc1ccc(CN(C)C(=O)c2cc3c([nH]c2=O)CCCC3=O)cc1,-4.031,-11.44
Cc1nc(CN2CCCC(N(C)Cc3cnn(C)c3)C2)no1 (centres unmarked),-15.87,-12.09
CN(C)CCN1C(=O)C2(CCN(CC3CC3)CC2)c2ccccc21.O=C(O)C(F)(F)F.O=C(O)C(F)(F)F,-26.74,-5.124
Cc1cnc(CCNc2cccc(CC3CCCNC3)n2)s1.Cl (centres unmarked),0.2505,15.4
O=C(O)C(F)(F)F.[H][C@@]12CCN(CCOCc3ccccc3)[C@]1([H])CC[C@H](C(=O)NC)O2,-36.33,-11.95
O=C(O)C(F)(F)F.c1ccc(N2CCCC3(CCN(Cc4ccsc4)C3)C2)nc1 (centres unmarked),4.591 & 3.173,4.265
CN(C)CC(=O)N1Cc2nc(C(=O)NCc3ccncc3)oc2C1,5.742,21.87
Cc1nc(CCCNC(=O)c2coc(CN3CCOCC3)c2)sc1C,-7.771,22.22
O=C(N1CCCC1)N1Cc2nccn2CC(Cn2ncccc2=O)C1 (centres unmarked),1.28,39.3
O=C(C1CCCN1c1ncnc2ccsc12)N1CCSCC1 (centres unmarked),11.32,2.38 & 19.89
[H][C@@]12C[C@@H](C(=O)Nc3cnccn3)CN(c3ncc(F)cn3)[C@]1([H])CCO2,-8.866,-16.93 & -12.42
CCc1noc(C(C)N2CCOCC2)n1 (centres unmarked),0.5448,-1.225
Cc1nc(N2CCCC2)nc2c1CN(C(=O)N1CCOCC1)CC2,-20.35,-31.88
Cc1nc(CNC(=O)NCC(O)c2ccc(F)cc2)cs1 (centres unmarked),-7.402,-3.051 & -37.5
O=C(NCc1ccccc1CN1CCCCCC1)Nc1nncs1,-8.854,-9.413
Cn1ccn2ncc(C(=O)NCc3cccnc3N3CCCC(O)C3)c12 (centres unmarked),9.685,0.3488
Cc1nc(C(=O)N[C@H]2COC[C@@H]2N2CCCCC2)cs1,-5.002,-15.59
[H][C@@]12CCCC[C@]1(O)CCN(C(=O)c1ccc3c(ccn3C)c1)C2,-8.104,-20.81
O=C1C(Nc2nccn3cnnc23)CCN1c1cccc(Cl)c1 (centres unmarked),12.92,-4.697
Cn1nc(C(C)(C)C)cc1NC(=O)Cn1ccccc1=O,-14.38,-13.77
O=C(O)C(F)(F)F.O=C(O)C(F)(F)F.[H][C@@]12C[C@@H](Oc3ccc(C)cc3)CN1CCN(C(=O)Cc1ccccn1)C2,-9.299 & -11.8,-37.68
C/N=C1/c2cc3cc(OC)ccc3n2CCN1C,18.63,29.04
CCCC(C)CN1CCC(n2cc(C3CCCC3)nn2)CC1 (centres unmarked),11.15,-1.231
Cc1nc(CN2CCN(C(=O)C(c3ccccc3C)N(C)C)CC2)no1 (centres unmarked),-1.976,2.453
CCC(=O)N1CCC(c2nc3c(c(NC)n2)CN(C)CC3)C1 (centres unmarked),0.4456,2.952
CCc1nsc(N2CCN(CC(=O)Nc3c(C)n[nH]c3C)CC2)n1,-12.07,-26.63
c1cnc(N2CCc3onc(CN4CCCC4)c3C2)cn1,-14.92,-28.96
CCC(CC)(CC(=O)OC)NC(=O)Nc1nnc(-c2ccccn2)s1,-11.26,12.42
Cc1cc(N2CCC(N(C)Cc3cc(=O)c(O)co3)CC2)nc(C)n1,8.9,-7.986
Cc1ccc2nc(C)c(C)c(C(=O)N3CCC4(CCO4)CC3)c2c1,9.596 & 4.896,-16.38
O=C(O)c1cc(/C=C/c2ccccc2)ncn1,-7.731 & -16.24,11.02
COCCCC1CCCN(C(=O)CCc2csc(N)n2)C1 (centres unmarked),11.45,15.45
O=C(Cc1cccs1)N1CCCC(CNS(=O)(=O)Cc2ccccc2)C1 (centres unmarked),2.711,31.85
O=C(CCN1CCC(c2cc3ccccc3[nH]2)CC1)N1CCOCC1,-5.535,-1.689 & -20.42
Cn1cc(C2(C)CN(C(=O)Nc3ccccc3F)CCO2)cn1 (centres unmarked),13.22,7.528
CN(Cc1ccc([S+](C)[O-])cc1)c1ccc(Cl)cn1 (centres unmarked),-15.98,-4.158
O=C(NC1CC1)N1CCC2(CC1)C(=O)NCCN2Cc1ccccc1.O=C(O)C(F)(F)F,28.81,-5.157
O=C(O)C(F)(F)F.O=C(O)C(F)(F)F.[H][C@@]12CCN(Cc3ccncc3)C[C@]1(C(=O)NCCOC)CCO2,-2.077,4.628
[H][C@]12CCN[C@@]1([H])CN(C(=O)CCC(C)C)C2,-4.972,-4.627
Cn1ccnc1CNC(=O)N(CCCO)C1CCCc2ccccc21 (centres unmarked),3.988,-0.5145 & -2.981
C/C=C(/C)C(=O)NS(=O)(=O)c1ccc(C(F)(F)F)cc1,-2.453,-7.356 & 1.218
Cc1c(Cn2c(=O)cnc3ccccc32)cnn1C,-21.15,0.1616
Cc1nn(C)c2c(=O)n(C(C)C)c(NCC3CCCO3)nc12 (centres unmarked),-2.401,3.501 & -6.311
COc1cccc2c1OCC(CNC(=O)CSc1nc(N)n[nH]1)C2 (centres unmarked),-6.774,4.624
Cc1ccccc1C(=O)NCCCN1CCc2ccccc2C1,16.09,-3.179
CC(=O)N1CCC(NC(C)c2cnn(-c3ccc(F)cc3F)c2C)CC1 (centres unmarked),-2.265,21.4
O=C1CC2(CCN(C(=O)Cc3cc4c(cc3Cl)OCCO4)C2)C(=O)N1 (centres unmarked),2.173,5.634 & -7.837
CCOCCN1CCN(Cc2cccc(C(=O)N(C)C)c2)CC1,-6.428,14
CCOC(=O)CCNC(=O)N1CCCC(CNC(=O)c2cccs2)C1 (centres unmarked),5.64,26.1
Cc1cc(NC(=O)CC2(Cn3cnnn3)CCCCC2)nn1C,0.02112,23.99
c1cc(-c2cn3nccc3nc2C2CCCCC2)nc(N2CCCC2)n1,-5.989,6.03
Cc1cc(-c2cnc(N(C)C)nc2C2CCCCN2C(=O)C2CC2)on1 (centres unmarked),-2.429 & 12.2,-5.639
CC(CCN1CCn2nc(CNC(=O)N(C)C)cc2C1)c1ccccc1 (centres unmarked),17.09,9.231
CC(C)c1cc(C(=O)NCCCN(C)C)nc(N2CCCC2)n1,42.35,68.85
O=C(Nc1cccnc1-n1cncn1)C1CCC1,4.147,-6.031 & 22.78
O=C(Nc1nncs1)C1CSCN1C(=O)C1CCCC1 (centres unmarked),-42.45 & -12.68,-15.1
CC(C)c1nc2n(n1)CC(NCc1ccncc1)CC2 (centres unmarked),0.7358,4.651 & -2.961
CSc1ccccc1C(=O)N1CCOC(CCN(C)C)C1 (centres unmarked),20.91,-0.5035 & -11.14
COCCC(=O)N1CCOCC(Cc2ccc3c(ccn3C)c2)C1 (centres unmarked),3.681 & -3.744,-19.71
CC(=O)NCC(=O)N1CCOC(c2cccc(N)n2)C1 (centres unmarked),4.138,-8.414
CN1CCN(Cc2ccccc2Cl)CC12CCC(=O)N(CC1CC1)CC2 (centres unmarked),4.568 & 7.438,2.227
CC(C)n1cc(C(=O)NC2CN3CCC2CC3)c2ccccc21 (centres unmarked),-15.76,4.871
Cc1cc(NC(=O)N2CCN(C)CC2C)n(C(C)(C)C)n1 (centres unmarked),11.58,-20.89 & -4.686

Some entries from above, unchanged:

SMILES	Mtb cholesterol medium	Mtb glucose medium
CC(C)n1cc(C(=O)NC2CN3CCC2CC3)c2ccccc21 (centres unmarked)	-15.76	4.871
CC(=O)N1CCC(NC(C)c2cnn(-c3ccc(F)cc3F)c2C)CC1 (centres unmarked)	-2.265	21.4
Cc1ccc2nc(C)c(C)c(C(=O)N3CCC4(CCO4)CC3)c2c1	9.596 & 4.896	-16.38
COCCCC1CCCN(C(=O)CCc2csc(N)n2)C1 (centres unmarked)	11.45	15.45
CCOC(=O)CCNC(=O)N1CCCC(CNC(=O)c2cccs2)C1 (centres unmarked)	5.64	26.1